In the supplement of paper PMC12823440, “Inhibitors supercharge kinase turnover through native proteolytic circuits” (Nature, 2025):
Structures can show the parent of a compound that is named as a salt. Some of the results follow. Hit calls seldom repeat between salt and free forms of one compound.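 Kinases were expressed as nanoluciferase fusions in K562 cells and luminescence was read every 4 h between 2 and 18 h as percent of control, DMSO set to 100% and a positive control to 0%. A time point counts as decreased when the signal drops significantly (2 sigma). The hit call is the authors' own, does not follow from the count of time points alone, and its rule is not shown.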

Amino acid sequences for entries named in this document (tags omitted).
UniProt P22607, whole entry, looked up: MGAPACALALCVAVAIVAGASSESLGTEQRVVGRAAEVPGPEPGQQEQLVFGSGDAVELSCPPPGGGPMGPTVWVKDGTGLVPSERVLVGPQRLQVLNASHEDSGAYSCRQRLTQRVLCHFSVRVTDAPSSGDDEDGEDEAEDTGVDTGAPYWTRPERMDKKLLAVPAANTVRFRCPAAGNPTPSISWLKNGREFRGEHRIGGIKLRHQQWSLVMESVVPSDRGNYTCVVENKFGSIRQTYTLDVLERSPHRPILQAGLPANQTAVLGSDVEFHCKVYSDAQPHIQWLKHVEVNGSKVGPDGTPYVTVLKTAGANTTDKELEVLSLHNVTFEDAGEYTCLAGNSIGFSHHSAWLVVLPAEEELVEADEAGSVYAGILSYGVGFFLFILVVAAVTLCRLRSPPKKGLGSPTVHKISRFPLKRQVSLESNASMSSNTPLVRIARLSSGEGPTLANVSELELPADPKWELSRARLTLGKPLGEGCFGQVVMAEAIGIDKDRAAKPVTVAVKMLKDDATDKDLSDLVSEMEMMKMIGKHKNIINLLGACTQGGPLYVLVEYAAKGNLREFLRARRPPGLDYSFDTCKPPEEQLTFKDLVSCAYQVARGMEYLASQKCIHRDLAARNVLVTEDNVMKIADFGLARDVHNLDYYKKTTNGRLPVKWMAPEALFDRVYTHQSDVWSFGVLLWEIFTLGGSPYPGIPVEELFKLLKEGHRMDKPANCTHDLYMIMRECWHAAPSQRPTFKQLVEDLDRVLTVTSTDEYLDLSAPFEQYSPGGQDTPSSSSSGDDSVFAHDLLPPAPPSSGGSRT

Target: FGFR3 (UniProt P22607)
Test: number of time points (of 5) at which kinase-Nluc abundance scored as decreased, DMSO-normalised (count); higher = more persistent destabilization
Conditions: K562; 2-18 h

SMILES	number of time points
CC(C)c1cc(/C=C(\C#N)C(N)=O)cc(C(C)C)c1O (10 µM)	0
CCCNC(=O)c1cn2ncnc(Nc3cc(C(=O)NC4CC4)ccc3C)c2c1C (10 µM)	0
COc1ccc2c(c1OC)OC1c3ccc(O)cc3OCC21 (configuration not stated) [Methylnissolin] (10 µM)	0
CN(CC(=O)N(Cc1ccc(C2CCCCC2)cc1)c1ccc(C(=O)O)c(O)c1)S(=O)(=O)c1c(F)c(F)c(F)c(F)c1F (2.5 µM)	0
CCCCNC(=N)NC(=N)N [Buformin (hydrochloride)] (2.5 µM)	0
O=C1NCCCc2c1oc1ccc(O)cc21 (10 µM)	0
c1ccc(-c2oc3ncnc(NC[C@@H]4CCCO4)c3c2-c2ccccc2)cc1 (2.5 µM)	0
CC(=O)Nc1nc2ccc(-c3cnc(C)c(NC(=O)OC4CCCCC4)c3)cc2s1 (10 µM)	0
CCOc1ccccc1C=C1C(=O)Nc2ccccc21 (10 µM)	0
Cc1ccc(-c2nn(C(C)(C)CNC(=O)c3ccncc3)c3ncnc(N)c23)cc1 (2.5 µM)	0
CC[C@H](Nc1ncnc2[nH]cnc12)c1oc2ccccc2c(=O)c1-c1cccc(F)c1 [Tenalisib] (10 µM)	0
CC(C)(C)C(=O)N1N=CC[C@H]1c1ccccc1 (10 µM)	0
COC1(C(=O)N[C@@H](C)c2ccc(-n3cc(F)cn3)nc2)CCC(c2nc(C)cc(Nc3cc(C)[nH]n3)n2)CC1 (stereo partly drawn) [trans-Pralsetinib] (2.5 µM)	0
CN(C)Cc1cccc(N=C(c2ccccc2)c2c(O)[nH]c3cc(C(N)=O)ccc23)c1 (10 µM)	0
COc1nc(-c2ccnc(NC(=O)C3CC3)c2)sc1C(N)=O [GSK-3β inhibitor 2] (10 µM)	0
C=C[C@H]1[C@H](O[C@@H]2O[C@H](CO)[C@@H](O)[C@H](O)[C@H]2OC(=O)c2c(O)cc(O)cc2-c2cccc(O)c2)OC=C2C(=O)OCC[C@H]21 [Amarogentin] (10 µM)	0
COc1cc(C(C)=O)cc(OC)c1O [Acetosyringone] (10 µM)	0
O=C(O)CCc1ccc(NCc2cccc(Oc3ccccc3)c2)cc1 (10 µM)	0
Cc1cc(C(C)Nc2ccccc2)c2nc(N3CCOCC3)cc(=O)n2c1 (configuration not stated) (10 µM)	0
O=C(O)c1ccc(-c2c[nH]c3ncc(-c4ccccc4)cc23)cc1C1CCCC1 (2.5 µM)	0
CC1=C(CC(=O)O)c2cc(F)ccc2/C1=C\c1ccc(C(C)C)cc1 (10 µM)	0
COc1cc(N2CCC(N(C)C)CC2)ccc1Nc1ncc(Cl)c(Nc2ccccc2P(C)(C)=O)n1 (2.5 µM)	2
Cc1ccc(-c2ccc3c(ccc4sc5c(c43)NC[C@@H](C)NC5=O)n2)cn1 (10 µM)	0
Nc1cc(C(F)F)c(-c2nc(N3C4CCC3COC4)nc(N3C4CCC3COC4)n2)cn1 (2.5 µM)	0
O=c1cc(-c2ccc(O)c(O)c2O)oc2ccccc12 (10 µM)	0
CC(C)c1ccc(CC(=O)N2CCN(c3ccc(C#N)nn3)CC2)cc1 (10 µM)	0
CN(C)Cc1cccc(N=C(c2ccccc2)c2c(O)[nH]c3cc(C(=O)N(C)C)ccc23)c1 (10 µM)	0

Given with bars between the fields: part of the list above.
SMILES | number of time points
Cc1cc(C(C)Nc2ccccc2)c2nc(N3CCOCC3)cc(=O)n2c1 (configuration not stated) (10 µM) | 0
O=C(O)c1ccc(-c2c[nH]c3ncc(-c4ccccc4)cc23)cc1C1CCCC1 (2.5 µM) | 0
